{"sequences": {"note": "Protein sequences, listed by entry. Tags and fused reporters are not part of them. Lines headed by an entry give the natural chain unless they say otherwise; changes in a name come on top.", "UniProt O43186": "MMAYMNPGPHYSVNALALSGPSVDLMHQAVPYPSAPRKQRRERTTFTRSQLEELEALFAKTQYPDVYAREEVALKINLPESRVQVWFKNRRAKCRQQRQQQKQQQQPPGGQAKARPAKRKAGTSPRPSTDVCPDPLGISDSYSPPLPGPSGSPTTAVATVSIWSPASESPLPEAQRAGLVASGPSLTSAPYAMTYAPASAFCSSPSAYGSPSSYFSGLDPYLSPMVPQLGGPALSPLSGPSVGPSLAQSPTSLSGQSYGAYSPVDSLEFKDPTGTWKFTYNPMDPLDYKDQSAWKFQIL"}, "source": "paper PMC7862700", "note": "The list shows a part of the results, in another mix than the full data. At the low end of the ranking the order means little."}
{"biological_target": "CRX (UniProt O43186)", "experiment": "DAPPL (digital affinity profiling via proximity ligation, sequencing)", "conditions": "10 mM Tris-HCl pH 7.5, 50 mM NaCl, 1 mM DTT, 4% glycerol, room temperature, 30 min; GST-TFs on glutathione beads, 16-mer random dsDNA library, 0.1% …; high values mean tight binding; double strand, one strand shown; scale: fold enrichment (6-mer frequency, TF over GST control)"}
{"sequence": "CCACCC", "binding signal": 0.931}
{"sequence": "ACTTGG", "binding signal": 1.1}
{"sequence": "AAGTAG", "binding signal": 1.2}
{"sequence": "GCCCCC", "binding signal": 0.845}
{"sequence": "CAATCT", "binding signal": 1.42}
{"sequence": "TTGCAG", "binding signal": 1.1}
{"sequence": "CTCCCA", "binding signal": 1.19}
{"sequence": "ACATCG", "binding signal": 0.837}
{"sequence": "TACTCC", "binding signal": 1.26}
{"sequence": "CTCGCA", "binding signal": 1.2}
{"sequence": "TGACGG", "binding signal": 0.75}
{"sequence": "AATAGT", "binding signal": 1.19}
{"sequence": "TCATTA", "binding signal": 1.62}
{"sequence": "GTTCAA", "binding signal": 0.949}
{"sequence": "GAATTG", "binding signal": 0.942}
{"sequence": "ATCCAT", "binding signal": 1.55}
{"sequence": "ACTGTA", "binding signal": 0.927}
{"sequence": "CGACTG", "binding signal": 0.825}
{"sequence": "ATGCCA", "binding signal": 0.887}
{"sequence": "CTTAGT", "binding signal": 1.98}
{"sequence": "GTTTCT", "binding signal": 1.15}
{"sequence": "GCGTCT", "binding signal": 0.929}
{"sequence": "CGCTAT", "binding signal": 0.942}
{"sequence": "CATGAC", "binding signal": 0.894}
{"sequence": "GCGGAA", "binding signal": 0.466}
{"sequence": "ACCATT", "binding signal": 0.97}
{"sequence": "CGGATT", "binding signal": 2.48}
{"sequence": "AGTGGC", "binding signal": 1}
{"sequence": "TTTTTG", "binding signal": 1.31}
{"sequence": "CGCGCC", "binding signal": 0.814}
{"sequence": "GATGTC", "binding signal": 0.814}
{"sequence": "GATGTT", "binding signal": 1.08}
{"sequence": "ACGTTG", "binding signal": 0.861}
{"sequence": "TCTATG", "binding signal": 1.11}
{"sequence": "ACCGCA", "binding signal": 1.01}
{"sequence": "TCGTCT", "binding signal": 1.37}
{"sequence": "GAAGCG", "binding signal": 0.817}
{"sequence": "CTTAAG", "binding signal": 2.69}
{"sequence": "AGCATT", "binding signal": 1.32}
